The text below walks through data of US20130158264A1, “Polymorphs of OSI-906” (priority 2010, published 2013).

Where “and” joins values, the source holds several entries; their conditions need not be identical. Equal entries are not always repeated.

The series can be described thus: Quantitative determination of Forms A, C and D in OSI-906 by Raman spectroscopy. The note with it: for Calculated Form C / Calculated Form D: single repetitions; for Average Form C / Average Form D: triplicate. As for the experimental part: A quantification method for Forms A, C and D in OSI-906 has been developed based on Raman spectroscopy and PLS (partial least squares) regression.
Lightly grind approximately 250 mg of sample in a mortar and pestle. Fill a 100 μL aluminum crucible which typically takes approximately 25 mg of ground sample depending on the bulk density of the material (no less than 12 mg should be used for the preparation). Use a spatula to compress the sample and provide a smooth surface. Place the crucible onto the Raman sample stage. Focus microscope and acquire Raman spectrum of the sample. Repeat sample preparation in crucible and acquisition procedure two additional times for a total of three measurements for each ground sample. Save each spectrum in GRAMS SPC file format.
A quantification method for Forms A, C and D in OSI-906 has been developed based on Raman spectroscopy and PLS (partial least squares) regression. The method assumes presence of only Forms A, C and D in the sample. For the purpose of quantitation, the Raman spectra are pretreated using mean centering normalization. The spectra within the range of 1478-1644 cm^−1 were used for PLS regression. TQ analyst software is used for establishing the calibration model (as shown in FIG. 61 and FIG. 62) and quantifying the samples. Weight percentage (wt %) of Forms C and D is determined using the calibration model.
Load the quantitation method using TQ Analyst software for quantifying the three spectra obtained for the sample. Print out the quantitation report for each spectrum. Calculate the average of Forms C and D concentration in wt % for the triplicate measurements.
The calculated amount of Forms A, C and D was weighed according to the desired wt % of Forms C and D and to a total amount of approximately 250 mg. The samples were mixed in a mortar with the help of a spatula and slightly ground for 5 minutes to obtain consistency and homogeneity.
The calibration and validation samples were analyzed according to the Test Method to obtain Raman spectra. Quantitative determination of Forms C and Form D was then performed using TQ Analyst software (version 7.1). For the purpose of quantitation, the Raman spectra are pretreated using a quadratic baseline correction based on the region between 1478 and 1654 cm^−1 to correct baseline shifts and intensity variation among samples. The Raman spectra within the range of 1478-1654 cm^−1 were used for PLS (partial least squares) regression with mean centering normalization.

The mark [1] stands for this setting: validation mixture, actual Form C 2.62 wt %.
The mark [2] stands for this setting: validation mixture, actual Form C 5.04 wt %.
[3] abbreviates: validation mixture, actual Form C 9.90 wt %.
[4] abbreviates: validation mixture, actual Form C 15.03 wt %.
Where [5] appears, read: validation mixture, actual Form D 2.59 wt %.
Where [6] appears, read: validation mixture, actual Form D 5.20 wt %.
The mark [7] stands for this setting: validation mixture, actual Form D 10.25 wt %.
Setting [8] is: validation mixture, actual Form D 15.16 wt %.

Turning to `CC1(O)CC(c2nc(-c3ccc4ccc(-c5ccccc5)nc4c3)c3c(N)nccn23)C1` (stereo not drawn) [Form C, cis-3-[8-amino-1-(2-phenyl-quinolin-7-yl)-imidazo[1,5-a]pyrazin-3-yl]-1-methylcyclobutanol], the “Accuracy = abs[(average Form C wt % determined) − (actual Form C wt %)]” value is given as 0.1 wt % (actual Form C 2.62 wt %); 0.0 wt % (actual Form C 5.04 wt %); 0.9 wt % (actual Form C 9.90 wt %); 1.2 wt % (actual Form C 15.03 wt %); 1.7 wt % (actual Form C 20.11 wt %). The “Calculated Form C” value was 19.09 wt % and 18.54 wt % and 17.67 wt % (validation mixture of Forms A, C, D, actual Form C 20.11 wt %); 2.64 wt % and 2.75 wt % and 2.70 wt % under setting [1]; 4.82 wt % and 5.29 wt % and 5.05 wt % under setting [2]; 9.46 wt % and 8.79 wt % and 8.89 wt % under setting [3]; 13.58 wt % and 13.83 wt % and 14.09 wt % under setting [4]. Besides, the “Average Form C” value amounted to 2.70 wt % under setting [1]; 5.05 wt % under setting [2]; 9.05 wt % under setting [3]; 13.83 wt % under setting [4]; 18.43 wt % (validation mixture, actual Form C 20.11 wt %).
Take `CC1(O)CC(c2nc(-c3ccc4ccc(-c5ccccc5)nc4c3)c3c(N)nccn23)C1` (stereo not drawn) [Form D, cis-3-[8-amino-1-(2-phenyl-quinolin-7-yl)-imidazo[1,5-a]pyrazin-3-yl]-1-methylcyclobutanol]: the “Accuracy = abs[(average Form D wt % determined) − (actual Form D wt %)]” value is, setting by setting: (actual Form D 2.59 wt %) 1.3 wt %; (actual Form D 5.20 wt %) 1.1 wt %; (actual Form D 10.25 wt %) 0.3 wt %; (actual Form D 15.16 wt %) 0.0 wt %; (actual Form D 20.11 wt %) 0.0 wt %. In addition, the “Calculated Form D” value is 20.74 wt % and 20.10 wt % and 19.60 wt % (validation mixture of Forms A, C, D, actual Form D 20.11 wt %); 3.89 wt % and 3.93 wt % and 3.85 wt % under setting [5]; 6.14 wt % and 6.49 wt % and 6.23 wt % under setting [6]; 10.86 wt % and 10.44 wt % and 10.25 wt % under setting [7]; 14.79 wt % and 15.43 wt % and 15.29 wt % under setting [8]. In addition, the “Average Form D” value is, setting by setting: under setting [5], 3.89 wt %; under setting [6], 6.29 wt %; under setting [7], 10.52 wt %; under setting [8], 15.17 wt %; (validation mixture, actual Form D 20.11 wt %) 20.15 wt %.
